Patent publication US20140038203A1, “METHODS FOR DETECTING OR PREDICTING KIDNEY DISEASE” (MUSC FOUNDATION FOR RESEARCH DEVELOPMENT, priority 2012, published 2014)

Assay: RRT study: LC-MS/MS urinary proteomics, AKI after cardiac surgery, RRT vs No RRT
Parameters: species or system human
Conditions: patients who did vs did not require RRT/dialysis; for Up or Down: direction of urinary abundance; for Mean Fold Change: read with the Up or Down column

Row | Molecule | Up or Down | Mean Fold Change
1 | Intercellular adhesion molecule 2 (protein, UniProt P13598 25-275, looked up) Intercellular adhesion …: KVFEVHVRPKKLAVEPKGSLEVNCSTTCNQPEVGGLETSLDKILLDEQAQWKHYLVSNISHDTVLQCHFTCSGKQESMNSNVSVYQPPRQVILTLQPTLVAVGKSFTIECRVPTVEPLDSLTLFLFRGNETLHYETFGKAAPAPQEATATFNSTADREDGHRNFSCLAVLDLMSRGGNIFHKHSAPKMLEIYEPVSDSQMVIIVTVVSVLLSLFVTSVLLCFIFGQHLRQQRMGTYGVRAAWRRLPQAFRP | Up | 
2 | Dermokine (protein, UniProt Q6E0U4 22-476, looked up) Dermokine: GPLQSGEESTGTNIGEALGHGLGDALSEGVGKAIGKEAGGAAGSKVSEALGQGTREAVGTGVRQVPGFGVADALGNRVGEAAHALGNTGHEIGRQAEDVIRHGADAVRGSWQGVPGHNGAWETSGGHGIFGSQGGLGGQGQGNPGGLGTPWVHGYPGNSAGSFGMNPQGAPWGQGGNGGPPNFGTNTQGAVAQPGYGSVRASNQNEGCTNPPPSGSGGGSSNSGGGSGSQSGSSGSGSNGDNNNGSSSGGSSSGSSSGGSSGGSSGGSSGNSGGSRGDSGSESSWGSSTGSSSGNHGGSGGGNGHKPGCEKPGNEARGSGESGIQNSETSPGMFNFDTFWKNFKSKLGFINWDAINKNQVPPPSTRALLYFSRLWEDFKQNTPFLNWKAIIEGADASSLQKRAGRDDQNYNYNQHAYPTAYGGKYSVKTPAKGGVSPSSSASRVQPGLLQWVKFW | Up | 13.85
3 | Junctional adhesion molecule A (protein, UniProt Q9Y624 28-299, looked up) Junctional adhesion molecule A: SVTVHSSEPEVRIPENNPVKLSCAYSGFSSPRVEWKFDQGDTTRLVCYNNKITASYEDRVTFLPTGITFKSVTREDTGTYTCMVSEEGGNSYGEVKVKLIVLVPPSKPTVNIPSSATIGNRAVLTCSEQDGSPPSEYTWFKDGIVMPTNPKSTRAFSNSSYVLNPTTGELVFDPLSASDTGEYSCEARNGYGTPMTSNAVRMEAVERNVGVIVAAVLVTLILLGILVFGIWFAYSRGHFDRTKKGTSSKKVIYSQPSARSEGEFKQTSSFLV | Up | 14.17
4 | Alpha-2-antiplasmin (protein, UniProt P08697 40-491, looked up) Alpha-2-antiplasmin: NQEQVSPLTLLKLGNQEPGGQTALKSPPGVCSRDPTPEQTHRLARAMMAFTADLFSLVAQTSTCPNLILSPLSVALALSHLALGAQNHTLQRLQQVLHAGSGPCLPHLLSRLCQDLGPGAFRLAARMYLQKGFPIKEDFLEQSEQLFGAKPVSLTGKQEDDLANINQWVKEATEGKIQEFLSGLPEDTVLLLLNAIHFQGFWRNKFDPSLTQRDSFHLDEQFTVPVEMMQARTYPLRWFLLEQPEIQVAHFPFKNNMSFVVLVPTHFEWNVSQVLANLSWDTLHPPLVWERPTKVRLPKLYLKHQMDLVATLSQLGLQELFQAPDLRGISEQSLVVSGVQHQSTLELSEVGVEAAAATSIAMSRMSLSSFSVNRPFLFFIFEDTTGLPLFVGSVRNPNPSAPRELKEQQDSPGNKDFLQSLKGFPRGDKLFGPDLKLVPPMEEDYPQFGSPK | Up | 
5 | Protein NOV homolog (protein, UniProt P48745 32-357, looked up) CCN family member 3: TQRCPPQCPGRCPATPPTCAPGVRAVLDGCSCCLVCARQRGESCSDLEPCDESSGLYCDRSADPSNQTGICTAVEGDNCVFDGVIYRSGEKFQPSCKFQCTCRDGQIGCVPRCQLDVLLPEPNCPAPRKVEVPGECCEKWICGPDEEDSLGGLTLAAYRPEATLGVEVSDSSVNCIEQTTEWTACSKSCGMGFSTRVTNRNRQCEMLKQTRLCMVRPCEQEPEQPTDKKGKKCLRTKKSLKAIHLQFKNCTSLHTYKPRFCGVCSDGRCCTPHNTKTIQAEFQCSPGQIVKKPVMVIGTCTCHTNCPKNNEAFLQELELKTTRGKM | Up | 12.93
